The AC50 is the midpoint of the concentration-response curve, whichever way the signal moves. A lower AC50 goes with greater potency.

The other results are listed elsewhere or left out. These are further read-outs of the screen, such as a control signal, another cell line or another target. No call is given for them. Compounds called inactive in the main read-out are mostly missing here. The note in brackets gives the kind of curve behind each potency; many fits are weak.

The nature of this test: qHTS Assay for Lipid Storage Modulators in Drosophila S3 Cells.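 For cell number change: cells counted by Cell Tracker Red CMTPX staining in the red channel.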 Conditions: BODIPY lipid droplet fluorescence, 18-24 h; for cell number change: measured here: cell count max response, cells fed with added oleic acid. In short, it runs like this: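 Drosophila S3 cells loaded with oleic acid (400 uM, as added) and compounds at several concentrations; lipid droplets imaged by 488-nm laser-scanning cytometry, 500–530 nm intensity and object ratio to cell channel. Percent activity normalized to 20 uM Triacsin C.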
A general note: qHTS replaces the single test concentration by a dilution series.

The mark [1] stands for this setting: measured here: cell number channel AC50, cells fed with added oleic acid.
Setting [2] is: measured here: lipid fluorescence (Fed channel) AC50, cells fed with added oleic acid.

Take `CC(C)(C)[C@]1(O)C[C@@H]2OC(=O)C[C@@]23C(=O)O[C@@H]2OC(=O)[C@H](O)[C@]213`: the cell number change was -32.8%. Besides, the AC50 under setting [1] was 32.6 µM [falling, single point]. Moreover, the AC50 under setting [2] was 3.26 µM [falling, full curve]. Take `O=C(Nc1ccccc1OC(=O)N1CCOCC1)N1CCOCC1`: the cell number change was -6.71%.

In the case of `O=c1[nH]c(=S)[nH]c(O)c1/C=C1/C=c2ccccc2=N1`, the AC50 under setting [2] is 14.6 µM [falling, partial curve].

Regarding `Cn1cc(Br)c(C(=O)Nc2ccc3c(C(F)(F)F)cc(=O)oc3c2)n1`, the cell number change was -6.52%. In addition, the AC50 under setting [1] was 7.31 µM [falling, single point]. Besides, the AC50 under setting [2] was 5.17 µM [falling, partial curve]. For the compound `CCC(=NCCc1ccccc1)c1c(O)n(C2CCCCC2)c(=O)[nH]c1=O`, the cell number change was -10.4%. For the same compound, the AC50 under setting [2] was 6.51 µM [rising, single point]. Turning to `CCCOc1ccc(C(C)=O)cc1Cc1c(O)[nH]c(=S)[nH]c1=O`, the cell number change was -17.1%. Further, under setting [1], the concentration at half-maximal activity (AC50) is 3.66 µM [falling, single point]. On to `COc1cccc(CN2CCCC(C(=O)c3ccccc3SC)C2)c1O` (centres undefined), for which the cell number change was 17.6%. Under setting [2], the AC50 was 16.4 µM [rising, partial curve]. Take `COc1cccc(CN2CCCCC2c2cccnc2)c1` (centres undefined): the cell number change is -7.48%. Moreover, the AC50 under setting [2] was 0.92 µM [rising, full curve, poor fit].

As for `CN(C)C(Cc1ccccc1)C(=O)c1ccccc1` (centres undefined), the cell number change was 3.86%. For the same compound, the AC50 under setting [2] is 25.9 µM [rising, partial curve]. Take `CSC(=Nc1ccccc1)c1c(O)n(C)c(=O)n(C)c1=O`: the cell number change is -0.768%.

As for `OC1(CN2CCOCC2)C2CC3CC(C2)CC1C3` (centres undefined), the AC50 under setting [2] was 7.31 µM [falling, partial curve]. Turning to `CCOC(=O)c1c(P(=O)(N2CCOCC2)N2CCOCC2)noc1N`, the AC50 under setting [1] is 1.84 µM [falling, full curve]. With `COc1ccc(CNCCc2cccc(F)c2)c2ccccc12`, the cell number change is -33.8%. In addition, the AC50 under setting [1] is 18.4 µM [falling, single point]. Under setting [2], the half-maximal activity concentration (AC50) was 14.6 µM [rising, partial curve].

Turning to `COc1cccc(Oc2c(C)oc3cc(OC(=O)N(C)C)ccc3c2=O)c1`, the cell number change is -18.3%. Moreover, the AC50 under setting [1] was 0.651 µM [falling, partial curve, poor fit]. As for `COc1ccc(OC)c(C(O)C(C)N)c1` (centres undefined), the cell number change is -9.5%. For the same compound, the half-maximal activity concentration (AC50) under setting [2] is 3.66 µM [falling, full curve, poor fit]. Take `COc1cc2c(cc1OC)-c1c(OC)c(OC)cc3c1C(C2)N(C)CC3` (centres undefined): the cell number change was -16.5%. For the same compound, under setting [2], the AC50 was 13 µM [rising, single point]. Take `CC(=NCCCn1ccnc1)c1c(O)n(C2CCCCC2)c(=O)[nH]c1=O`: the cell number change turned out to be 20.6%.

As to `CCOC(=O)c1c(N)n(Cc2ccc(OC)cc2)c2nc3ccccc3nc12`, the cell number change stood at 22.1%. The AC50 under setting [1] was 0.0651 µM [rising, full curve, poor fit]. Also, the AC50 under setting [2] is 0.058 µM [rising, partial curve, poor fit].
